Reference: PubChem BioAssay AID504444 (National Center for Advancing Translational Sciences (NCATS), 2011)
Screen size: about 360,000 compounds; about 7,500 (2.1%) were called active. This list was built around the results that the source calls inconclusive (neither active nor inactive); the mix of calls is not that of the screen. Calls follow the shape of the dose curve; as a rule, active = well fitted inhibition curve with a large enough effect; inconclusive = small, poorly fitted or top-dose-only effect, or effect the other way; inactive = flat fitted curve, though single readings scatter. Potencies of inconclusive entries are doubtful fits and often do not repeat.

Assay: Nrf2 qHTS screen for inhibitors; also: nearly all actives have a fitted effect of over 60% in size
Details: A549 ARE-Fluc reporter, luciferase luminescence, 18-24 h; activity change, negative = inhibition: at 46 µM (top of the series)
Method in brief: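 Nrf2 function is reported as luminescence of an ARE-controlled luciferase in A549 cells. Compounds were tested at several concentrations, and a CellTiter-Fluor read on the same wells flagged cytotoxicity.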
% is scaled to controls: 0 for no effect and ±100 for the full control effect; potency is read from the fitted curve at half-maximal effect.

Structure (SMILES)	Potency	activity change, negative = inhibition
Cc1csc(=Nc2c(C)n(C)n(-c3ccccc3)c2=O)n1Cc1ccccc1	inconclusive: 5.8 µM [activator, partial curve, poor fit]	
CCOC(=O)C1(Cc2cccc(OC)c2)CCCN(C(=O)c2ccccc2C)C1 (stereo not drawn)	inconclusive: 13 µM [activator, partial curve, poor fit]	
O=C(CC12CC3CC(CC(Br)(C3)C1)C2)NC1CCCC1		inactive: 4.61%
CCC(Sc1nnc(-c2ccc(C)c(Cl)c2)n1CC)C(=O)Nc1nccs1 (stereo not drawn)	inconclusive: 9.2 µM [falling, partial curve, poor fit]	
Cc1cccc(NC(=O)/C=C/c2ccc3c(c2)OCO3)n1	inconclusive: 29.1 µM [falling, single point]	
COc1ccc(CCc2nnc(CCC(=O)N(C)Cc3ccnc4ccccc34)o2)cc1	active: 20.6 µM	
O=C(O)CCc1nc(-c2ccccc2)no1		inactive: -4.41%
COC(=O)C1=C(C)N(CC2CC2)C(=NCc2cccc(C(F)(F)F)c2)N[C@H]1c1ccccc1	inconclusive: 29.1 µM [activator, single point]	
Nc1nc(NCc2ccc(Cl)cc2Cl)c2[nH]cnc2n1	inactive	
CN(C(=O)CCc1nnc(-c2ccc(-c3ccccc3)cc2)o1)C1CCOCC1	inconclusive: 18.4 µM [falling, partial curve]	
O=C(/C=C/Sc1ccccc1)c1ccccc1	inconclusive: 8.2 µM [activator, partial curve, poor fit]	
Nc1cc(=O)[nH]c(=O)n1Cc1ccco1	inconclusive: 0.146 µM [falling, full curve, poor fit]	
CC1CN=C(NC(=O)c2cccc([N+](=O)[O-])c2)S1 (stereo not drawn)	inconclusive: 0.231 µM [activator, full curve]	
Oc1ccc(CN2CCCc3ccccc32)c2cccnc12	inconclusive: 18.4 µM [falling, single point]	
O=C(COc1ccccc1)N/N=C/c1ccc([N+](=O)[O-])o1	active: 13 µM	
COc1ccccc1CNC(=O)Cn1ncc2c3ccccc3n(Cc3ccccc3C)c2c1=O		inactive: 4.32%
CCOC(=O)c1ccc(NS(=O)(=O)c2ccc(Br)s2)cc1		inactive: -21.3%
Nc1nc(NCCO)nc(NCc2ccccc2)c1[N+](=O)[O-]	inconclusive: 16.4 µM [falling, partial curve, poor fit]	
COc1ccc(-c2[nH]ncc2CN2CCC(O)(c3ccc(Cl)cc3)CC2)cc1	inconclusive: 16.4 µM [falling, single point]	
N#Cc1c(N)n(CCNC(=O)c2ccc(Cl)cc2)c2nc3ccccc3nc12	active: 9.2 µM	
O=C(NCCc1ccc(Cl)cc1)C1CCC(CNc2nc(=S)[nH]c3ccccc23)CC1 (stereo not drawn)	inconclusive: 29.1 µM [falling, single point]	
COc1ccc(N/N=C(/C(C)=O)N2CCCc3ccccc32)cc1	active: 6.51 µM	

Whole records from above.
COC(=O)C1=C(C)N(CC2CC2)C(=NCc2cccc(C(F)(F)F)c2)N[C@H]1c1ccccc1 is listed with Potency: inconclusive: 29.1 µM [activator, single point]
COc1ccccc1CNC(=O)Cn1ncc2c3ccccc3n(Cc3ccccc3C)c2c1=O is listed with activity change, negative = inhibition: inactive: 4.32%

(further entries)

Structure (SMILES)	Potency	activity change, negative = inhibition
CC(=O)c1c(C)[nH]c(C(=O)OCc2c(F)cccc2Cl)c1C	active: 5.17 µM	
CC(=O)Nc1ccc(S(=O)(=O)N[C@@H](C)C(=O)N2CCN(C/C=C/c3ccccc3)CC2)cc1	inconclusive: 23.1 µM [falling, single point]	
CN(C)/C=C1\Oc2ccc3ccccc3c2C1=O	inconclusive: 7.31 µM [activator, partial curve]	
Cc1ccc(CCNC(=O)CN2C(=O)COc3ccc(S(=O)(=O)N4CCOCC4)cc32)cc1		inactive: -5.75%
CCOC(=O)c1cnc2cc(-c3ccc(Cl)cc3)nn2c1N	inconclusive: 8.2 µM [activator, partial curve, poor fit]	
O=C(NCc1cccnc1)c1cccn1-c1ncc(C(F)(F)F)cc1Cl	inconclusive: 9.2 µM [falling, partial curve, poor fit]	
COc1ccc(/C=C/C(=O)Nc2c(C)nn(C)c2C)cc1COc1ccc(Br)cc1	inconclusive: 32.6 µM [falling, partial curve, poor fit]	
CCOc1ccc(C(=O)Nc2ccccc2C(=O)O)cc1	inconclusive: 6.51 µM [activator, partial curve, poor fit]	
NNC(=O)c1cccc(COc2ccc3c(c2)CCC3)c1	inconclusive: 5.17 µM [activator, full curve, poor fit]	
C=CCOC(=O)C1=C(C)NC(=O)NC1c1ccc(Cl)cc1 (stereo not drawn)	inconclusive: 0.58 µM [falling, full curve, poor fit]	
CCC1CSC(Nc2ccc(C(=O)/C=C/c3ccc(Br)cc3)cc2)=N1 (stereo not drawn)		inactive: -17.9%
OCCN(/C=N/c1nc(-c2ccc(Br)cc2)cs1)CCO	inconclusive: 16.4 µM [activator, partial curve, poor fit]	
O=C(NC(=S)Nc1ccc(N2CCOCC2)c(Cl)c1)C(c1ccccc1)c1ccccc1	inconclusive: 29.1 µM [falling, single point]	
CC1CN(S(=O)(=O)c2cccc(C(=O)NCc3ccc4c(c3)OCO4)c2)CC(C)O1 (stereo not drawn)	inconclusive: 20.6 µM [falling, partial curve, poor fit]	
CCc1c(C)c2ccc(OCC(N)=O)cc2oc1=O		inactive: 2.33%
O=C(O)c1ccc(Cl)c(N2C(=O)Nc3ccccc3N2O)c1	inconclusive: 6.51 µM [falling, partial curve, poor fit]	
COc1cccc(/C(C)=N/NC(=O)c2cc(-c3cccnc3)nc3ccccc23)c1	active: 20.6 µM	
COc1cc(NC(=O)Cn2ncc3c([nH]c4ccc(C)cc43)c2=O)cc(OC)c1OC	inconclusive: 29.1 µM [activator, single point]	
O=C(Nc1ccc(N2C(=O)C3CCCCC3C2=O)cc1Cl)c1cccs1 (stereo not drawn)	inconclusive: 29.1 µM [activator, single point]	
COc1cc(C(=O)Nc2ccc3oc(-c4ccccc4)nc3c2)cc(OC)c1OC	active: 20.6 µM	
Cn1c2ccccc2c2c(C(=O)N3CCN(c4ccc(F)cc4)CC3)cn(C3CCCCC3)c(=O)c21	inconclusive: 20.6 µM [falling, partial curve]	
